Laboratory results: patent US6372957B1, “Transgenic mouse comprising a MEF2 binding site operatively linked to an indicator gene and methods of use” (Board of Regents, The University of Texas System, priority 1998, dated 2002)
At least one compound was matched to its structure with a doubt left.

System: cultured cardiomyocytes
Assay: Hypertrophy of cultured cardiomyocytes in response to AngII and PE
Format: cell-based, rat

Structure (SMILES): C=CC[C@@H]1/C=C(\C)C[C@H](C)C[C@H](OC)[C@H]2O[C@@](O)(C(=O)C(=O)N3CCCC[C@H]3C(=O)O[C@H](/C(C)=C/[C@@H]3CC[C@@H](O)[C@H](OC)C3)[C@H](C)[C@@H](O)CC1=O)[C@H](C)C[C@@H]2OC [FK-506]
- ability of cultured cardiomyocytes to undergo hypertrophy in response to AngII and PE: block
